Data from patent US10442791B2, “DNA-PK inhibitors” (Vertex Pharmaceuticals Incorporated, priority 2012, dated 2019).
Some results were stated once for a whole list of compounds, not compound by compound.

By UniProt entry, the sequences of proteins in these tests, tags left out.
UniProt P78527, whole entry: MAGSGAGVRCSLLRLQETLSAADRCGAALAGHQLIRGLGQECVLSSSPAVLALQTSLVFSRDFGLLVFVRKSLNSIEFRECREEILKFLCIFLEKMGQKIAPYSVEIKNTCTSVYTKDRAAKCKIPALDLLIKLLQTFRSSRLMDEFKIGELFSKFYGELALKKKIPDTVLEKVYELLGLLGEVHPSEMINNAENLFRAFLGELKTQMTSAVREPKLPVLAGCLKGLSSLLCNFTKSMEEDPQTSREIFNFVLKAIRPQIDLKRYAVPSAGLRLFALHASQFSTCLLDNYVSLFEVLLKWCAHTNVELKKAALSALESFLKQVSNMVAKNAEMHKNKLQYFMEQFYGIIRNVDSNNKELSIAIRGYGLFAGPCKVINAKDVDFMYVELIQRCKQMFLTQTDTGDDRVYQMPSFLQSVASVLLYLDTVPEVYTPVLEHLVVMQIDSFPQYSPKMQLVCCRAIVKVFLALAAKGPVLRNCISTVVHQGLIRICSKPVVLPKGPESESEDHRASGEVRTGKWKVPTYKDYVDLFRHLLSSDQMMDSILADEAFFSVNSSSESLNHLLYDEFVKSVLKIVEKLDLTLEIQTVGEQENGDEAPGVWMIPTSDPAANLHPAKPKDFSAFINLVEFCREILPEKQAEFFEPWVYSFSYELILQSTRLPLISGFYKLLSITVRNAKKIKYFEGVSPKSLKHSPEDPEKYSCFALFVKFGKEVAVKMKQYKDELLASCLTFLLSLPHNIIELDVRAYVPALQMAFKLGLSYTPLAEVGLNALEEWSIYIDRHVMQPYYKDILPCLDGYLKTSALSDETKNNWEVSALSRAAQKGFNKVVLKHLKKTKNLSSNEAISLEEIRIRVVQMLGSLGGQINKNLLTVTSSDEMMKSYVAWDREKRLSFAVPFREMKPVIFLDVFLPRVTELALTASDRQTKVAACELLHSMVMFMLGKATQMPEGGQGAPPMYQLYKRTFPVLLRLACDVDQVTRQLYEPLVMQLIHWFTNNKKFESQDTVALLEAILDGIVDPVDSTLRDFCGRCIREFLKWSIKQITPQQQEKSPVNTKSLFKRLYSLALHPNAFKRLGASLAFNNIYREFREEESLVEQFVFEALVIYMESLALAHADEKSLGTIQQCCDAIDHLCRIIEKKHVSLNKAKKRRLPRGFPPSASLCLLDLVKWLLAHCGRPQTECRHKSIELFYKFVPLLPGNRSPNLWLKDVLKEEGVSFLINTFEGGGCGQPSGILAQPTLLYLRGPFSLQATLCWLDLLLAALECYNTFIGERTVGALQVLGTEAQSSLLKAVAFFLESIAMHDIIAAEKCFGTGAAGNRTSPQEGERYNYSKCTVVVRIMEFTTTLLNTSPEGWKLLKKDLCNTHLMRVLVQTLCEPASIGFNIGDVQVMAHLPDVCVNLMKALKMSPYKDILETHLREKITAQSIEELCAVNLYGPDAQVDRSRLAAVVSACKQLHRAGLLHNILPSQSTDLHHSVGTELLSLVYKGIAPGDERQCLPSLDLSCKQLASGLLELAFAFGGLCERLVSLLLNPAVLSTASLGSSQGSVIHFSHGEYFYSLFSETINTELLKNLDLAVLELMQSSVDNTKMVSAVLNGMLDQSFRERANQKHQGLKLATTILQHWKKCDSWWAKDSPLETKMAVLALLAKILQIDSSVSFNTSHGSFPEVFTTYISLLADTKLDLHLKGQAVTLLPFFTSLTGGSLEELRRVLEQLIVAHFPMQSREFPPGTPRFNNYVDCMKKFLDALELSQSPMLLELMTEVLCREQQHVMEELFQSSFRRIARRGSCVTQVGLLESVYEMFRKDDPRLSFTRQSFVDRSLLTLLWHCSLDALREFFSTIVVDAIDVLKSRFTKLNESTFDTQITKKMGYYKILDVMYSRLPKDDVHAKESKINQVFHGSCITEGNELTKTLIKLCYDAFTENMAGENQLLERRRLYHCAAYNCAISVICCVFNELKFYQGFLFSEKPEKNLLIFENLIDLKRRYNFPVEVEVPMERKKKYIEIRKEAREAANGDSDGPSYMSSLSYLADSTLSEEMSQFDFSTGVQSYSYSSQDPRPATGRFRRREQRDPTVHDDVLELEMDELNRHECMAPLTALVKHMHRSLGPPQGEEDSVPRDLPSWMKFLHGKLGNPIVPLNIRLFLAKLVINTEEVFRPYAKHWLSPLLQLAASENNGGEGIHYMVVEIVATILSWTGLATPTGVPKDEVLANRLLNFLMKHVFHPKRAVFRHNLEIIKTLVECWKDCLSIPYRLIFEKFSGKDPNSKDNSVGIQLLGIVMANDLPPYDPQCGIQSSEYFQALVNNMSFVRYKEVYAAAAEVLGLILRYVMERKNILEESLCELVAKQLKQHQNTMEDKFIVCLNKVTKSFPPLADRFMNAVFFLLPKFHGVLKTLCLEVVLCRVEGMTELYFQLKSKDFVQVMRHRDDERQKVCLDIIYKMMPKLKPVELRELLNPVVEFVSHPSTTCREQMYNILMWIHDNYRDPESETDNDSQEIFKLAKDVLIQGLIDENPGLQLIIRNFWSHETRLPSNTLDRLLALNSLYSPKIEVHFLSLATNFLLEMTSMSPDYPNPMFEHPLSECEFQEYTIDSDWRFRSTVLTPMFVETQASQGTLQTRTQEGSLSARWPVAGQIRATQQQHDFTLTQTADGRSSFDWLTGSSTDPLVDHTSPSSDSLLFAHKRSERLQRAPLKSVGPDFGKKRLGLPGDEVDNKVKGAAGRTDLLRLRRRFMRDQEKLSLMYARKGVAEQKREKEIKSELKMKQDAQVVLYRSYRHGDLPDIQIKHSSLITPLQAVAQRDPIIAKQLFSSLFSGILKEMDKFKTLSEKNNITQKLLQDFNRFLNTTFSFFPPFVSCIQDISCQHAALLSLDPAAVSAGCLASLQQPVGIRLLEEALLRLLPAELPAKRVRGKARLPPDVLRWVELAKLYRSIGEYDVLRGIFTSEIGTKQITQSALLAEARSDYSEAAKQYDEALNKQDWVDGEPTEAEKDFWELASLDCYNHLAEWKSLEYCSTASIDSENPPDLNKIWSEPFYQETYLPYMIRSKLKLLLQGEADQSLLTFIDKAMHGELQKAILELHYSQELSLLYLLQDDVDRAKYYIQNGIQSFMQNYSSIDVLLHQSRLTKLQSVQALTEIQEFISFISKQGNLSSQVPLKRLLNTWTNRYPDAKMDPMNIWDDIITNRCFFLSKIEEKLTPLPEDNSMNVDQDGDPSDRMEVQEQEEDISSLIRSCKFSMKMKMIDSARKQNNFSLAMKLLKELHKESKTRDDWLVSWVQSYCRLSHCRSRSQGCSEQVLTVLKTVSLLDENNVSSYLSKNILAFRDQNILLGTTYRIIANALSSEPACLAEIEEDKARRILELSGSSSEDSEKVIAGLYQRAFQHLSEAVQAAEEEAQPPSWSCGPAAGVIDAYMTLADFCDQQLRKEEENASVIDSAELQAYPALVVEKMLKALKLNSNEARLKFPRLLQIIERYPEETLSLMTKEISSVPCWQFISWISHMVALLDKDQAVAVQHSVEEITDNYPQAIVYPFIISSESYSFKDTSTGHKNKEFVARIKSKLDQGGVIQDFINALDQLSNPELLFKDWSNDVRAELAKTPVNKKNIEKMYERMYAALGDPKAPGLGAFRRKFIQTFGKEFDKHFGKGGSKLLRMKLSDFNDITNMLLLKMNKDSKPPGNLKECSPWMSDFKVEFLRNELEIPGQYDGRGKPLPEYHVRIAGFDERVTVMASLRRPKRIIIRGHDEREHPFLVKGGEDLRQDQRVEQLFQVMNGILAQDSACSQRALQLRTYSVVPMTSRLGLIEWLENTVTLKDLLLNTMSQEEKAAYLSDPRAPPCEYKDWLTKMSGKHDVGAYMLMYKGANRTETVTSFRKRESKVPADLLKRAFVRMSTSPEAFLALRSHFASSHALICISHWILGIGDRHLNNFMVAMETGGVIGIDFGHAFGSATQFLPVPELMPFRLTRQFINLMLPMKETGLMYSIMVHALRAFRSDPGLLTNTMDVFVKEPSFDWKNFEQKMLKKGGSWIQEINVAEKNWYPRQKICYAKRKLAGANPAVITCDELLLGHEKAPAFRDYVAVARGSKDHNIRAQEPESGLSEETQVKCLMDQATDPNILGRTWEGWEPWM

Molecular target: DNA-PK (Homo sapiens, UniProt P78527)
Assay: DNA-PK inhibition assay (radiometric 33P-ATP kinase assay)
Format: biochemical
Conditions: 100 μM ATP; competitive tight-binding fit
Description: Compounds were screened for their ability to inhibit DNA-PK kinase using a standard radiometric assay. Briefly, in this kinase assay the transfer of the terminal ^33P-phosphate in ^33P-ATP to a peptide substrate is interrogated. The assay was carried out in 384-well plates to a final volume of 50 μL per well containing approximately 6 nM DNA-PK, 50 mM HEPES (pH 7.5), 10 mM MgCl2, 25 mM NaCl, 0.01% BSA, 1 mM DTT, 10 μg/mL sheared double-stranded DNA (obtained from Sigma), 0.8 mg/mL DNA-PK peptide ([…] obtained from American Peptide), and 100 μM ATP. Accordingly, compounds of the invention were dissolved in DMSO to make 10 mM initial stock solutions. Serial dilutions in DMSO were then made to obtain the final solutions for the assay. A 0.75 μL aliquot of DMSO or inhibitor in DMSO was added to each well, followed by the addition of ATP substrate solution containing ^33P-ATP (obtained from Perkin Elmer). The reaction was started by the addition of DNA-PK, peptide and ds-DNA. After 45 min. the reaction was quenched with 25 μL of 5% phosphoric acid. The reaction mixture was transferred to MultiScreen HTS 384-well PH plates (obtained from Millipore), allowed to bind for one hour, and washed three times with 1% phosphoric acid. Following the addition of 50 μL of Ultima Gold™ high efficiency scintillant (obtained from Perkin Elmer), the samples were counted in a Packard TopCount NXT Microplate Scintillation and Luminescence Counter (Packard BioScience). The Ki values were calculated using Microsoft Excel Solver macros to fit the data to the kinetic model for competitive tight-binding inhibition.

Ki, ≤ 300 nM:
COc1sccc1C(C)CNc1cc(-c2ccc(C)nc2)ncn1 (stereo not drawn) [Compound 257]
COc1cc(CO)ccc1C(C)CNc1cc(-c2ccc(N3CCN(C(C)=O)CC3)nc2)ncn1 (stereo not drawn) [Compound 115]
CNC(=O)c1ncnc2c([C@H](C)CNc3cc(-c4cnc(OC)nc4)ncn3)cccc12 [Compound 1009]
CNC(=O)c1ccc([C@H](C)CNc2cc(-c3ccc4c(ccn4C)c3)ncn2)c(OC)c1 [Compound 268]
CNC(=O)c1ccnc2c([C@H](C)CNc3cc(-c4ccc(N5CC(CO)C5)nc4)ncn3)cccc12 [Compound 736]
Cc1ccc(-c2cc(NC[C@@H](C)c3cc(C)nc4c3OCC4)ncn2)cn1 [Compound 502]
CNC(=O)c1ccc([C@H](C)CNc2cc(-c3ccc(N4CCCC4)nc3)ncn2)c(OC)c1 [Compound 363]
Cc1ccc(-c2cc(NCC(C)c3cccc(C)c3O)ncn2)cn1 (stereo not drawn) [Compound 384]
CNC(=O)c1ccnc2c([C@H](C)CNc3cc(-c4cnc(N5CCCC(O)C5)nc4)ncn3)cccc12 (stereo partly drawn) [Compound 728]
C[C@H](CNc1cc(-c2cnc3nccn3c2)ncn1)c1ccnc2c1OCCO2 [Compound 461]
CNC(=O)c1ccnc2c([C@H](C)CNc3cc(-c4ccnc(C5CC5)c4)ncn3)cccc12 [Compound 911]
CNC(=O)c1ccc(C(C)CNc2cc(-c3cnc4c(cnn4CCC#N)c3)ncn2)c(OC)c1 (stereo not drawn) [Compound 442]
CNC(=O)c1ccnc2c([C@H](C)CNc3cc(-c4cnc(N)c(CO)c4)ncn3)cccc12 [Compound 970]
COc1cscc1C(C)CNc1cc(-c2cnc3c(cnn3C3CCN(C)CC3)c2)ncn1 (stereo not drawn) [Compound 228]
CN1CCN(c2ccc(-c3cc(NCCc4ccccc4OC4CC4)ncn3)cn2)CC1=O [Compound 142]
CNC(=O)c1c(F)cnc2c([C@H](C)CNc3cc(-c4cnc(CO)c(OC)c4)ncn3)cccc12 [Compound 920]
COc1ccccc1CCNc1cc(-c2ccc3ncccc3c2)ncn1 [Compound 1]
COc1cc(SC)ccc1C(C)CNc1cc(-c2ccc(C)nc2)ncn1 (stereo not drawn) [Compound 72]
CC(=O)c1ccc(-c2cc(NC[C@@H](C)c3ccnc4c3OCC4)ncn2)cc1 [Compound 596]
COc1cc(C(=O)NOC(C)C)ccc1C(C)CNc1cc(-c2ccc(C)nc2)ncn1 (stereo not drawn) [Compound 224]
COc1ccccc1[C@H](C)CNc1cc(-c2cnc3c(cnn3C3CN(C(C)=O)C3)c2)ncn1 [Compound 249]
Cc1ncc(-c2cc(NC[C@@H](C)c3ccnc4c3OCC4)ncn2)cn1 [Compound 416]
CNC(=O)c1ccnc2c([C@H](C)CNc3cc(N4CC(=O)NC(C)C4)ncn3)cccc12 (stereo partly drawn) [Compound 773]
COC(=O)c1ccc(C(C)CNc2cc(-c3ccc(C)nc3)ncn2)c(OC)c1 (stereo not drawn) [Compound 113]
CNC(=O)c1c(F)cnc2c([C@H](C)CNc3cc(-c4ccc(OCC5CC5)nc4)ncn3)cccc12 [Compound 896]
CNC(=O)c1cc(OC)c(C(C)CNc2cc(-c3ccc(C)nc3)ncn2)cn1 (stereo not drawn) [Compound 376]
CNC(=O)c1cc(C)nc2c([C@H](C)CNc3cc(-c4ccc(C)nc4)ncn3)cccc12 [Compound 484]
CNC(=O)c1ccnc2c([C@H](C)CNc3cc(-c4cnc(C)c(F)c4)ncn3)cccc12 [Compound 972]
C[C@H](CNc1cc(-c2ccc3cccnc3c2)ncn1)c1ccnc2c1OCCO2 [Compound 543]
Cc1ccc(-c2cc(NC[C@@H](C)c3cccc4c(C(=O)NC5COC5)ccnc34)ncn2)cn1 [Compound 547]
Cc1ncc(-c2cc(NC[C@@H](C)c3cccc4c(C(F)F)c(F)cnc34)ncn2)cn1 [Compound 813]
CNC(=O)c1ccnc2c([C@H](C)CNc3cc(-c4ccc(S(C)(=O)=O)cc4)ncn3)cccc12 [Compound 675]
CC[C@H](CNc1cc(-c2ccc(C)nc2)ncn1)c1ccccc1OC [Compound 335]
COc1ccc(OC)c(CCNc2cc(-c3ccc(C)nc3)ncn2)c1 [Compound 27]
CNC(=O)c1ccnc2c([C@H](C)CNc3cc(-c4ccc(N5CCCC5)nc4)ncn3)cccc12 [Compound 723]
CNC(=O)c1ccnc2c([C@H](C)CNc3cc(-c4ccc(N5CCC(C(C)(C)O)CC5)nc4)ncn3)cccc12 [Compound 734]
CNC(=O)c1ccnc2c([C@H](C)CNc3cc(-c4ccc(C)nc4)ncn3)ccc(F)c12 [Compound 515]
CNC(=O)c1ccnc2c([C@H](C)CNc3cc(-c4cnc(C)c(C)c4)ncn3)cccc12 [Compound 870]
Cc1ccc(-c2cc(NC[C@@H](C)c3ccccc3OC3CC3)ncn2)cn1 [Compound 107]
CNC(=O)c1ccnc2c([C@H](C)CNc3cc(-c4ccc(N5CCN(C(C)=O)CC5)nc4)ncn3)cccc12 [Compound 614]
COC(=O)c1cc(C(C)CNc2cc(-c3ccc(C)nc3)ncn2)c(OC)s1 (stereo not drawn) [Compound 295]
CNC(=O)c1cc(OC)c(C(C)CNc2cc(-c3ccc(C)nc3)ncn2)s1 (stereo not drawn) [Compound 301]
CCS(=O)(=O)c1ccc(-c2cc(NC[C@@H](C)c3cccc4c(C(=O)NC)ccnc34)ncn2)cc1 [Compound 676]
CNC(=O)c1ccnc2c([C@H](C)CNc3cc(-c4ccc(O[C@@H]5COC[C@H]5N)nc4)ncn3)cccc12 [Compound 725]
CNc1ncc(-c2cc(NCC(C)c3nccc4c3OCC4)ncn2)cn1 (stereo not drawn) [Compound 373]
CCC(CO)Nc1ccc(-c2cc(NC[C@@H](C)c3cccc4c(C(=O)NC)ccnc34)ncn2)cn1 (stereo partly drawn) [Compound 724]
Cc1ccc(-c2cc(NC[C@@H](C)c3cncc4c3OCCN4)ncn2)cn1 [Compound 837]
CNC(=O)c1ccc([C@H](C)CNc2cc(-c3ccc(N(C)C4COC4)nc3)ncn2)c(OC)c1 [Compound 350]
CNC(=O)c1ccnc2c([C@H](C)CNc3cc(-c4cncc(N)c4)ncn3)cccc12 [Compound 874]
CC(CNc1cc(-c2ccc(F)nc2)ncn1)c1ccnc2c1OCC2 (stereo not drawn) [Compound 343]
CNC(=O)c1c(F)cnc2c([C@H](C)CNc3cc(-c4cnc5c(c4)COC5)ncn3)cccc12 [Compound 966]
CNC(=O)c1ccc(C(C)CNc2cc(-c3ccc(OC4COC4)nc3)ncn2)c(OC)c1 (stereo not drawn) [Compound 307]
Cc1ccc(-c2cc(NCC(C)c3csc4cccnc34)ncn2)cn1 (stereo not drawn) [Compound 330]
CNC(=O)c1ccc([C@H](C)CNc2cc(-c3ccc(CN)cc3)ncn2)c(OC)c1 [Compound 351]
CNC(=O)c1ccc([C@H](C)CNc2cc(-c3ccc(C)nc3)ncn2)c2ncccc12 [Compound 485]
CNC(=O)c1ccnc2c([C@H](C)CNc3cc(-c4cncnc4)ncn3)cccc12 [Compound 605]

Same assay, conditions: 100 μM ATP; competitive tight-binding fit; listed as compound 391

Ki, ≤ 300 nM:
CNC(=O)c1ccc([C@H](C)CNc2cc(-c3ccc(NC4CCOC4)nc3)ncn2)c(OC)c1 (single isomer, unassigned) [Compound 391]
